# Measurements published in PMC7532413.
# Sequences of proteins named here, by UniProt entry; tags and fusion partners are left off.
# UniProt P09429: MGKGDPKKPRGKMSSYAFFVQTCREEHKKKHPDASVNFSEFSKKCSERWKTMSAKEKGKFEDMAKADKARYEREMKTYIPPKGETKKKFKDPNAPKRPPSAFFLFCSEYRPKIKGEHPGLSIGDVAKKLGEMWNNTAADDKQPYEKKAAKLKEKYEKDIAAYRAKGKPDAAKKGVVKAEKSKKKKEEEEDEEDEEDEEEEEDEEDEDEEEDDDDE
# UniProt Q9GZX7: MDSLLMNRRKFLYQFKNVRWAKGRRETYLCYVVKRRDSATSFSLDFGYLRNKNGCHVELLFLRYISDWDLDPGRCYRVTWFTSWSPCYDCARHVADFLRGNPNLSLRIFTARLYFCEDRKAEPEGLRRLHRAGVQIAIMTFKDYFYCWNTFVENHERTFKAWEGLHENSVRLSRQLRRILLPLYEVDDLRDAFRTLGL
# UniProt Q13569: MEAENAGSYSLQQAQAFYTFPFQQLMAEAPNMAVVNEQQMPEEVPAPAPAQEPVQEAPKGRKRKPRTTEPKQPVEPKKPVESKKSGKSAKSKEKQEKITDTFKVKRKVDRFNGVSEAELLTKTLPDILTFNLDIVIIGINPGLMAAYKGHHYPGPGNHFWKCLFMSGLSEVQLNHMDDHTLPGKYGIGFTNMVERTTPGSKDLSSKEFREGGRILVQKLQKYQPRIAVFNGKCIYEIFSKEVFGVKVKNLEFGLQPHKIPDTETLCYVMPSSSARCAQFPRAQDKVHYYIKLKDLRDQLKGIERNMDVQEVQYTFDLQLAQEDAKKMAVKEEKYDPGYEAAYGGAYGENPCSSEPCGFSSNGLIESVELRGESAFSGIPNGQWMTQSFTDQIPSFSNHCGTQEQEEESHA
# Results are given in words; binding and its absence hold for the method and conditions named. Binding seen in cells or lysates may run through a third protein. Some results given as binding are weak or reduced against the parent protein; the word gives no strength.
# Target: HMGB1 (UniProt P09429)
# Experiment: co-IP; Jurkat cell proteins extracted with RIPA lysis buffer; anti-HMGB1 antibody overnight at 4°C, protein A/G agarose beads 2 hours at room temperature; western blot with anti-TET2, anti-AID and anti-TDG
row,binding,Substance
1,binds,Activation-induced cytidine deaminase (from UniProt Q9GZX7 1-198) (enzyme)
2,binds,thymine-DNA glycosylase (from UniProt Q13569 1-410) (enzyme)
